Data source: PubChem BioAssay AID504774 (Drosophila RNAi Screening Center, 2011)
Aim: 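Genes required for cells to withstand methyl methanesulphonate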 (primary screen). Cell system: Drosophila Kc167 cells. Knock-down reagent: long dsRNA against Drosophila genes, about 0.25 µg dsRNA per well. Duration: about 6 days: 3 days knock-down, then 3 days with or without MMS. Conditions: methyl methanesulphonate 0.004% (w/v) for 3 days after knock-down. Measurement: 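ATP-dependent luminescence as a measure of live cells in MMS-exposed wells, quantile normalised within each plate, with replicate values also given as a mean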. Direction: mean viability with MMS: higher = more surviving cells after MMS.
The screen tested about 23,000 reagents; shown is an unselected part of those with a known target gene and a result. 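Values are quantile-normalised luminescence on an arbitrary scale; higher means more cells surviving MMS.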 Not all columns of the deposit are shown.

For HisT (Histamine transporter) [DRSC05051], what does the deposit list?
mean viability with MMS: 3.48e6

What is on record for HisT (Histamine transporter) [DRSC05052]?
mean viability with MMS: 3.81e6

How did the screen score HisT (Histamine transporter) [DRSC06405]?
mean viability with MMS: 3.45e6

For CG1542 [DRSC15035], how do the results read?
mean viability with MMS: 3.33e6

What is on record for CG32453 [DRSC21673]?
mean viability with MMS: 3.65e6

For Cog1 (Component of oligomeric golgi complex 1) [DRSC15661], what was measured?
mean viability with MMS: 3.77e6

What is on record for pAbp (poly(A) binding protein) [DRSC07659]?
mean viability with MMS: 2.84e6

What did the screen give for E(spl)m7-HLH (Enhancer of split m7, helix-loop-helix) [DRSC16696]?
mean viability with MMS: 3.64e6

For CG17612 [DRSC00505], how do the results read?
mean viability with MMS: 3.51e6

For RIC-3 (RIC3 acetylcholine receptor chaperone) [DRSC04243], what does the deposit list?
mean viability with MMS: 3.70e6

What is on record for RIC-3 (RIC3 acetylcholine receptor chaperone) [DRSC04543]?
mean viability with MMS: 3.39e6

Which result is listed for CG10700 [DRSC02096]?
mean viability with MMS: 3.62e6

With CG11141 [DRSC06048], what does the deposit list?
mean viability with MMS: 3.07e6

What did the screen give for Ir67c (Ionotropic receptor 67c) [DRSC22097]?
mean viability with MMS: 3.74e6

Which result is listed for Pdp (Pyruvate dehydrogenase phosphatase) [DRSC17825]?
mean viability with MMS: 3.57e6

5 entries from above, ordered by “mean viability with MMS”, lowest first.
pAbp (poly(A) binding protein) [DRSC07659] — mean viability with MMS: 2.84e6
RIC-3 (RIC3 acetylcholine receptor chaperone) [DRSC04543] — mean viability with MMS: 3.39e6
CG17612 [DRSC00505] — mean viability with MMS: 3.51e6
E(spl)m7-HLH (Enhancer of split m7, helix-loop-helix) [DRSC16696] — mean viability with MMS: 3.64e6
RIC-3 (RIC3 acetylcholine receptor chaperone) [DRSC04243] — mean viability with MMS: 3.70e6

The results go on.
For CG12853 [DRSC06193], how do the results read?
mean viability with MMS: 3.52e6

What did the screen give for Atg1 (Autophagy-related 1) [DRSC09809]?
mean viability with MMS: 3.58e6

Which result is listed for Atg1 (Autophagy-related 1) [DRSC09810]?
mean viability with MMS: 3.63e6

Which result is listed for CG16758 [DRSC07984]?
mean viability with MMS: 3.53e6

What did the screen give for CG16758 [DRSC08492]?
mean viability with MMS: 3.49e6

What did the screen give for tweek [DRSC02433]?
mean viability with MMS: 3.43e6

With tweek [DRSC02434], how do the results read?
mean viability with MMS: 3.41e6

How did the screen score tweek [DRSC02785]?
mean viability with MMS: 3.10e6

What did the screen give for tweek [DRSC23133]?
mean viability with MMS: 3.35e6

What did the screen give for CycH (Cyclin H) [DRSC11861]?
mean viability with MMS: 3.65e6

With CycH (Cyclin H) [DRSC21308], what does the deposit list?
mean viability with MMS: 3.41e6

What is on record for Cec-Psi1 (Cecropin pseudogene 1) [DRSC21956]?
mean viability with MMS: 3.60e6

For gish (gilgamesh) [DRSC16154], how do the results read?
mean viability with MMS: 3.70e6

Which result is listed for yellow-e3 [DRSC15170]?
mean viability with MMS: 3.50e6

How did the screen score CG4983 [DRSC02799]?
mean viability with MMS: 3.59e6

For msk (moleskin) [DRSC11340], what does the deposit list?
mean viability with MMS: 3.51e6

For CG31810 [DRSC01560], what does the deposit list?
mean viability with MMS: 3.51e6

With Hex-C (Hexokinase C) [DRSC07079], how do the results read?
mean viability with MMS: 3.37e6

For dve (defective proventriculus) [DRSC04680], what does the deposit list?
mean viability with MMS: 3.36e6

What did the screen give for Tes (Testin) [DRSC06996]?
mean viability with MMS: 3.57e6
